In the supplement of paper PMC10849652:
The list shows a part of the results.

Sequences of proteins named here, by UniProt entry; tags and fusion partners are left off. A change or cut given only in a name is not applied to a line headed by its entry.
UniProt P14174: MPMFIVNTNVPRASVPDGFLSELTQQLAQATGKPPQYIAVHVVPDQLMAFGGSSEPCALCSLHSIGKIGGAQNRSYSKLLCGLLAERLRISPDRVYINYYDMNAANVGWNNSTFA
UniProt Q96T76: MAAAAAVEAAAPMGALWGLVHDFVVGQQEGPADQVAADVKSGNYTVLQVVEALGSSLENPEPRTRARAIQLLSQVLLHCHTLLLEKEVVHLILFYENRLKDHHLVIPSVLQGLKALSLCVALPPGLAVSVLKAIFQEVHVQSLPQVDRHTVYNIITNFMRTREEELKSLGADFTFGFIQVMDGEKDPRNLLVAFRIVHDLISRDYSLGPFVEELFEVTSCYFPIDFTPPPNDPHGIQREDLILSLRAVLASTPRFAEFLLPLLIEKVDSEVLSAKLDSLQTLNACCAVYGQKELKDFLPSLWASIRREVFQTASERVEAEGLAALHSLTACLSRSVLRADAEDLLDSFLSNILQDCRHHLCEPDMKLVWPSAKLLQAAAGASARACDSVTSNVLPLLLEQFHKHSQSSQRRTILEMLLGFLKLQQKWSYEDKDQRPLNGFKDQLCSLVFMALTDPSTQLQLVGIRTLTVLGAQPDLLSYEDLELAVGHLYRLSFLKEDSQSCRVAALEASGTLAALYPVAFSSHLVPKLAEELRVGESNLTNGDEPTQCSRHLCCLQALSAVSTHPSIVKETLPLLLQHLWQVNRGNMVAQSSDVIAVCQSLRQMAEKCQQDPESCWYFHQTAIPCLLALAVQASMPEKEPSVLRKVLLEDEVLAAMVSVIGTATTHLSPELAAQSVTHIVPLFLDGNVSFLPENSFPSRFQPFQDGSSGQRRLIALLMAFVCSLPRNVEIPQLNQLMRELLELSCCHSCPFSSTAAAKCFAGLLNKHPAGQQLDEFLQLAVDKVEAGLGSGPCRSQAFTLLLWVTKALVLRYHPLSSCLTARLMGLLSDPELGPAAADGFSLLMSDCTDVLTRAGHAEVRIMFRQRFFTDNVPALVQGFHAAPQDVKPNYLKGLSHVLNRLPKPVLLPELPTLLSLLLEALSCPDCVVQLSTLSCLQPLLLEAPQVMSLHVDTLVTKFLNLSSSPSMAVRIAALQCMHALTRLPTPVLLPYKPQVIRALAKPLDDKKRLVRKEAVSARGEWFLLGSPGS
UniProt O96033: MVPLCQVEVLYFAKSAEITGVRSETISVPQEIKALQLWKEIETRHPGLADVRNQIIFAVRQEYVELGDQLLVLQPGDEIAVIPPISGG
UniProt Q9H081: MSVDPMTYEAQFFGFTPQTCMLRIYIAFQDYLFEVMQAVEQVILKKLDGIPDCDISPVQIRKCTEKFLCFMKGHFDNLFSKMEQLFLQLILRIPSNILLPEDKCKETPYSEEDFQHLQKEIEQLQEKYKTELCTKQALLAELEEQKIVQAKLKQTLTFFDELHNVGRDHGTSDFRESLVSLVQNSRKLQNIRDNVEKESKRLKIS
UniProt Q8WV92, whole entry, looked up: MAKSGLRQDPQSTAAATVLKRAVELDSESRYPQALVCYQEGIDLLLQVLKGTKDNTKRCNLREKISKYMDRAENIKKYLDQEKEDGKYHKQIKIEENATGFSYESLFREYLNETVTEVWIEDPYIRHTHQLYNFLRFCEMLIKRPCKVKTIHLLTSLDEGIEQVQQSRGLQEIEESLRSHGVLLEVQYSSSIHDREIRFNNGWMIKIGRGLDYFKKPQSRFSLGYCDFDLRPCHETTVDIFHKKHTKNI
UniProt Q96BX8: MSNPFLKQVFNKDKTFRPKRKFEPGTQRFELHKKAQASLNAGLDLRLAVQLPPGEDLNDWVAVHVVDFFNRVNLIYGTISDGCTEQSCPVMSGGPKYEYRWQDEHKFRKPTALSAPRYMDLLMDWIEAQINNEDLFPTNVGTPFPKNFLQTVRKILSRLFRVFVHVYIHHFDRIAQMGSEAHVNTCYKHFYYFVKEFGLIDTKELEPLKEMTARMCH
UniProt Q9BVC4, whole entry, looked up: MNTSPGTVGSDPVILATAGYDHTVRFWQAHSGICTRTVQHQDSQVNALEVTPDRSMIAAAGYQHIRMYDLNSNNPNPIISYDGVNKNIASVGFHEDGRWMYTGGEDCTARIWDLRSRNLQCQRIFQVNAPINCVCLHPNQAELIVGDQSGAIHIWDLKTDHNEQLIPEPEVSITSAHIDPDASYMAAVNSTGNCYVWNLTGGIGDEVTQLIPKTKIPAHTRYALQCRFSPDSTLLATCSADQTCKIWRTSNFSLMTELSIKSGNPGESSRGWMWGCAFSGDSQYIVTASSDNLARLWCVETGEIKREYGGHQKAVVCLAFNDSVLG
UniProt Q9BWT6: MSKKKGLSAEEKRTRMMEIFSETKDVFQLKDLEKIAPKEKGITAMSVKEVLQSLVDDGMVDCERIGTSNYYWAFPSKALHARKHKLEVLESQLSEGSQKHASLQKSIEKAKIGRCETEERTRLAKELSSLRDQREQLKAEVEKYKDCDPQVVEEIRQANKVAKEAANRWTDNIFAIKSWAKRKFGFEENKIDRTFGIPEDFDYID
UniProt Q5XKP0: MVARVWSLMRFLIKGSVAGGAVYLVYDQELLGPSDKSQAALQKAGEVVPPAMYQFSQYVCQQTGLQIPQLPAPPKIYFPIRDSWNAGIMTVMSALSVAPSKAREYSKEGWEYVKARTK
UniProt Q7L1V2: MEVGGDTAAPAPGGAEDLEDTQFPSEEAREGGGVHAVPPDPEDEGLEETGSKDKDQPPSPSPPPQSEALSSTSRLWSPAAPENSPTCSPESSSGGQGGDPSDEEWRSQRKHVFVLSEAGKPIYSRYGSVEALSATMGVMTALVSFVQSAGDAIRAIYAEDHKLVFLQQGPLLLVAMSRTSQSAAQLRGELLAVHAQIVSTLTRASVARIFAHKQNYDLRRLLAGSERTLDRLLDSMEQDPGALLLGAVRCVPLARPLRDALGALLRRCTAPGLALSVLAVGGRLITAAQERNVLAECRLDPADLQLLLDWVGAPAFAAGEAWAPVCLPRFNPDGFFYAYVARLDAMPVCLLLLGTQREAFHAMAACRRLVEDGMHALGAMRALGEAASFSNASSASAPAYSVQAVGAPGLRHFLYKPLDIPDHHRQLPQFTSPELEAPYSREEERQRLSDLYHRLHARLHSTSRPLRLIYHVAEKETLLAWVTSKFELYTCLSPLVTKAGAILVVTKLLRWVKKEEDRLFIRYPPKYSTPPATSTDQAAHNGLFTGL
UniProt Q00013: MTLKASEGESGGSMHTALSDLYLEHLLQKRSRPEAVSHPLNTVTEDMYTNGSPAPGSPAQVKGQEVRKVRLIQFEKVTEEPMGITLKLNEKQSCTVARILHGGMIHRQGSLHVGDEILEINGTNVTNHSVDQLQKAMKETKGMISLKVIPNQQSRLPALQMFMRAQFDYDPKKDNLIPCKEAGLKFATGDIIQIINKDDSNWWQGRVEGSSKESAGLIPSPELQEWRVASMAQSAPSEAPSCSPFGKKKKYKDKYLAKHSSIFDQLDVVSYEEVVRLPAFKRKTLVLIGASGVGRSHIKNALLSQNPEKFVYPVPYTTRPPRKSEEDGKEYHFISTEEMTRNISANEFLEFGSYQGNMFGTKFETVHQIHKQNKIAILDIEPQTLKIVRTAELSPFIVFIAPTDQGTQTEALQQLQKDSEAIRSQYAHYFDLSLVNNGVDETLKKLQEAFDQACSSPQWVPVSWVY
UniProt P25325: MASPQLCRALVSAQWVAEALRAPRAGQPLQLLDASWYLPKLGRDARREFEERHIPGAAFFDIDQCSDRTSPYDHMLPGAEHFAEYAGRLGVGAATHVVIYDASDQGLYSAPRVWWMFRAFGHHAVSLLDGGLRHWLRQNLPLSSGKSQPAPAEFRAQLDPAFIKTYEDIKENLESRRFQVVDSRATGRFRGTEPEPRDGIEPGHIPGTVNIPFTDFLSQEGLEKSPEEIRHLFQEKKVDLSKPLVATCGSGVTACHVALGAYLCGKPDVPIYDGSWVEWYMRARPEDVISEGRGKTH
UniProt Q9HCE1: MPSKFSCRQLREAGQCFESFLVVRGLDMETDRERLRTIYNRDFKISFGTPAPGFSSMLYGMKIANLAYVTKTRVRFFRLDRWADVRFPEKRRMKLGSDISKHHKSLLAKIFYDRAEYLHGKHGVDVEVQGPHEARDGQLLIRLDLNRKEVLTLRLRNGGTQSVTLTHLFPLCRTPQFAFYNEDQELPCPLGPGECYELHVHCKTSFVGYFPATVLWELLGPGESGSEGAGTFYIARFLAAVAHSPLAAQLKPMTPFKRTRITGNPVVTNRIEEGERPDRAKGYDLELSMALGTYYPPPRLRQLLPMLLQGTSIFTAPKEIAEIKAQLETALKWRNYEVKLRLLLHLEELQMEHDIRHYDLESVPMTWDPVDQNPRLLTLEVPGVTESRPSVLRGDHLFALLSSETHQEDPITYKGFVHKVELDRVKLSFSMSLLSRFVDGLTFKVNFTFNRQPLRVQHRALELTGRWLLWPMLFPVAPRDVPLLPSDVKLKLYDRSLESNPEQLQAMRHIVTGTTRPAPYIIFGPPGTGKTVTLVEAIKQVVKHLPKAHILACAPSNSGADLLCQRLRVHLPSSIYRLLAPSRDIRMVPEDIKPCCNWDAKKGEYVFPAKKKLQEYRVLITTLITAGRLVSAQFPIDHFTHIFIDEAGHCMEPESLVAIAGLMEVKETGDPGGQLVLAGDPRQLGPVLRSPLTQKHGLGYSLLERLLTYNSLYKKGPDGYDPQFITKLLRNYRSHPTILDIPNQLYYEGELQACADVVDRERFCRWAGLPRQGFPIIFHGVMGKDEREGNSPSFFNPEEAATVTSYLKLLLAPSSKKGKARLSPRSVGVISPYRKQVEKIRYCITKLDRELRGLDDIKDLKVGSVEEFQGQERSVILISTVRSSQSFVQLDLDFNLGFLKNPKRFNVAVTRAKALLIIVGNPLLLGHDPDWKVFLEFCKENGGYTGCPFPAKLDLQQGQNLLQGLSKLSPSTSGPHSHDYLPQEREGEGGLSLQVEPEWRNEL
UniProt Q6WCQ1: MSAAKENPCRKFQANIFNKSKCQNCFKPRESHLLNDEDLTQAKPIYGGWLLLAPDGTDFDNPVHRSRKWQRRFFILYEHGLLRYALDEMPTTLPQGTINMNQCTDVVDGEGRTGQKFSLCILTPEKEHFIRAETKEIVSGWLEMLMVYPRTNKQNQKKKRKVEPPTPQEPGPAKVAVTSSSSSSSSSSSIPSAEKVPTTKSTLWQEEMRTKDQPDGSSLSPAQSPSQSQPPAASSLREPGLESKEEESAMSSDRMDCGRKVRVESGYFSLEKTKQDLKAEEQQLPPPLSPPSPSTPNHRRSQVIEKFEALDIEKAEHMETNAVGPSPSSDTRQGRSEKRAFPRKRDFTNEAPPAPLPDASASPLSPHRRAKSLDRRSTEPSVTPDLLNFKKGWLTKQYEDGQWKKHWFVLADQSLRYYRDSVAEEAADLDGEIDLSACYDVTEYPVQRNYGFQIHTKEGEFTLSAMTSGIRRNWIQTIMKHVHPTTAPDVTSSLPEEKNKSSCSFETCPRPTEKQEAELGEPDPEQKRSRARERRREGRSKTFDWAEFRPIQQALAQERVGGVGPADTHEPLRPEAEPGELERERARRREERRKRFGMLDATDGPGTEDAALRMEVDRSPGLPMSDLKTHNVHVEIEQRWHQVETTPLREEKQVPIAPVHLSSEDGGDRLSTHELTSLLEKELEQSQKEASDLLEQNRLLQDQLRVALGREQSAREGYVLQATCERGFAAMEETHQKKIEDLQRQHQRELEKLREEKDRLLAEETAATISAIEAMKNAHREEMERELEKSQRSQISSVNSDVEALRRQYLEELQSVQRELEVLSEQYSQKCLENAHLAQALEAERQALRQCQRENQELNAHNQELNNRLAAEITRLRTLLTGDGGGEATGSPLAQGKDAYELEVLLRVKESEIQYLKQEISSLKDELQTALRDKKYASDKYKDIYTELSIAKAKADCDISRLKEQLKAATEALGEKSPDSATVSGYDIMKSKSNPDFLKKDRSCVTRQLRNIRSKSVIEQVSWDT
UniProt O00566: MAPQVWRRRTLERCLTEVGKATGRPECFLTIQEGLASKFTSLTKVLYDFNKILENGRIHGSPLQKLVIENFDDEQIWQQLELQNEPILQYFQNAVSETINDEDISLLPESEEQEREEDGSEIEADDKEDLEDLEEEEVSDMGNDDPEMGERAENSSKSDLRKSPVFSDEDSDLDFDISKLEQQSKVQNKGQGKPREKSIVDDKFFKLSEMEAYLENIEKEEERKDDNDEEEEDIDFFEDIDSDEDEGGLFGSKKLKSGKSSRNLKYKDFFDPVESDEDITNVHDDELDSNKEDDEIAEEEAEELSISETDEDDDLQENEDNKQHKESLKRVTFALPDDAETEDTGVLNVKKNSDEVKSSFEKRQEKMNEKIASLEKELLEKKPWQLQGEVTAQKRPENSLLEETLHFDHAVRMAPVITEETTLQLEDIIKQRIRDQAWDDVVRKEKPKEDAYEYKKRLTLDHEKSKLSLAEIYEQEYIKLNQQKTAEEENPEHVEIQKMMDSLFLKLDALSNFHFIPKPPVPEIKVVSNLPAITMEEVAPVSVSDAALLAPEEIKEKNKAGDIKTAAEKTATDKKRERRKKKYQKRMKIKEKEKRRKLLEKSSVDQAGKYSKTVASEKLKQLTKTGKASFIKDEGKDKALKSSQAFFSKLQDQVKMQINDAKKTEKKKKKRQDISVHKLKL

The targets below were run with CNC(=O)C1=CC=CC=C1NC2=NC(=NC=C2Cl)NC3=C(C=C(C=C3)N4CCOCC4)OC (assay: log2 fold change, soluble protein after heating vs DMSO (PISA); higher = thermal stabilisation; K562 cells, 10 uM, 30 min; active = over 0.2 and 3.5 SD of the protein, either way, in both replicates (recomputed)).
Outline: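 K562 cells at 2×10^6 cells/mL were treated with 10 μM compound for 30 min. Aliquots were heated for 3 min across 48°C-58°C, pooled, and extracted in PBS with 0.5% NP-40 at 4°C; soluble protein was the supernatant after 21,000xg for 90 min. Soluble protein was quantified by TMTpro 16plex LC-MS/MS with channel sums equalised, and reported as log2 fold change in thermal stability against DMSO controls, with values from duplicates.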

| Target | log2 fold change |
| --- | --- |
| MRPL47 (UniProt Q9HD33) | inactive: -0.028 |
| MLXIP (UniProt Q9HAP2) | inactive: -0.021 |
| MRPL4 (UniProt Q9BYD3) | inactive: -0.027 |
| MIF (UniProt P14174) | inactive: 0.82 |
| MMGT1 (UniProt Q8N4V1) | inactive: 0.043 |
| MMS19 isoform 8 (UniProt Q96T76) | inactive: 0.003 |
| MOCS2 (UniProt O96033) | inactive: -0.064 |
| MNAT1 (UniProt P51948) | inactive: 0.012 |
| MRPL53 (UniProt Q96EL3) | inactive: 0.062 |
| MIS12 (UniProt Q9H081) | inactive: 0.002 |
| MRPL37 (UniProt Q9BZE1) | inactive: -0.015 |
| MKRN2 (UniProt Q9H000) | inactive: -0.08 |
| MITD1 (UniProt Q8WV92) | inactive: -0.146 |
| MIEN1 (UniProt Q9BRT3) | inactive: -0.002 |
| MKRN3 (UniProt Q13064) | inactive: 0.18 |
| MICU1 isoform 3 (UniProt Q9BPX6) | inactive: -0.054 |
| MOB3A (UniProt Q96BX8) | inactive: 0.052 |
| MLST8 (UniProt Q9BVC4) | inactive: -0.116 |
| MND1 (UniProt Q9BWT6) | inactive: -0.029 |

2 records picked at random from those above:

| Target | log2 fold change |
| --- | --- |
| MMS19 isoform 8 (UniProt Q96T76) | inactive: 0.003 |
| MLST8 (UniProt Q9BVC4) | inactive: -0.116 |

Next part

| Target | log2 fold change |
| --- | --- |
| MRFAP1 (UniProt Q9Y605) | inactive: -0.003 |
| MRPL34 (UniProt Q9BQ48) | inactive: 0.086 |
| MICOS13 (UniProt Q5XKP0) | inactive: 0.005 |
| MPC1 (UniProt Q9Y5U8) | inactive: 0.039 |
| MRPL46 (UniProt Q9H2W6) | active: 0.29 |
| MORC3 (UniProt Q14149) | inactive: 0.249 |
| MIEF1 (UniProt Q9NQG6) | inactive: -0.002 |
| MON1B (UniProt Q7L1V2) | inactive: -0.011 |
| MPP1 (UniProt Q00013) | inactive: 0.073 |
| MPST isoform 2 (UniProt P25325) | inactive: 0.133 |
| MICU2 (UniProt Q8IYU8) | inactive: -0.03 |
| MOV10 (UniProt Q9HCE1) | inactive: 0.107 |
| MPRIP isoform 2 (UniProt Q6WCQ1) | inactive: -0.099 |
| MIEF1 (UniProt L0R8F8) | inactive: 0.008 |
| MRPL50 (UniProt Q8N5N7) | inactive: -0.011 |
| MINK1 (UniProt Q8N4C8) | inactive: -0.007 |
| MRPL28 (UniProt Q13084) | inactive: 0.203 |
| MMAA (UniProt Q8IVH4) | inactive: -0.138 |
| MPHOSPH10 (UniProt O00566) | inactive: -0.023 |
